Measured data: PubChem BioAssay AID602196 (INSERM, 2012)
The whole screen tested about 23,000 reagents; below is an unselected part. 455 of all reagents (2%) were called active. 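Active includes both protection and sensitisation; some change values fall well beyond the stated -50 to +50 range.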 Not all columns of the deposit are shown. No sequences are given here. The record does not give: the amount of reagent.

Screen: 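Modifiers of cisplatin sensitivity in A549 cells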
System: human A549 lung cancer cells
Reagents: siRNA pair against human genes
Time to read-out: 48 h transfection before cisplatin; time from cisplatin to read-out not stated
Challenge: cisplatin at a dose killing half of control-siRNA cells; exact dose and duration not given
Measured: 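Cisplatin cell death as a shift from the 50% death seen with control siRNA; siRNAs toxic or growth-blocking alone scored 0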
Reading the numbers: two-siRNA summed score (-2 to +2): higher = both siRNAs protect from cisplatin killing; -2 means both sensitise; mean protection from cisplatin (shift in death): higher = protection from cisplatin killing
Call rule: 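siRNAs harmful alone (LDH or WST-1) get 0; others get +1 for less and -1 for more cisplatin killing; genes are active when the two siRNAs give the same sign, summing to ±2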
Meaning of the calls: active = both siRNAs shift cisplatin killing the same way; inactive = no consistent shift, or siRNA harmful alone

two-siRNA summed score (-2 to +2) | mean protection from cisplatin (shift in death) (%) | activity call | target
1 | 8.3 | inactive | LOC390239
0 | -10.4 | inactive | HELB
-1 | -21.1 | inactive | CHRM3
0 | -9 | inactive | GZMA
0 | -5.3 | inactive | AFF2
0 | 17.4 | inactive | LCN1
0 | 1 | inactive | OCEL1
0 | 14.2 | inactive | DPH1
-1 | -12.7 | inactive | CSNK1D
0 | 3.6 | inactive | ATP6V0A2
0 | 7.7 | inactive | TMED2
0 | 12.2 | inactive | UBXN4
-1 | -12.5 | inactive | DKK4
0 | 1.8 | inactive | ZMYM5
0 | -5.7 | inactive | DTX1
1 | 14.7 | inactive | BRS3
0 | 10 | inactive | SSX8P
0 | 2.6 | inactive | SART3
0 | 2.7 | inactive | WDR41
0 | -4.2 | inactive | PARVA
0 | 24.5 | inactive | LOC442209
0 | -3.1 | inactive | LINC01521
0 | -13.3 | inactive | SCAMP3
0 | 4.2 | inactive | YTHDF3
0 | 6.7 | inactive | NOD1
-1 | -12.5 | inactive | MAML3
0 | -3.7 | inactive | EIF4A2
0 | -4.9 | inactive | TUBD1
-1 | -16.7 | inactive | CKM
0 | 10 | inactive | CISD1
0 | -6.3 | inactive | ZNF354A
0 | 12 | inactive | MYBPC2
-2 | -16.2 | active | GAS8-AS1
0 | 17.3 | inactive | PTPN1
-1 | -5.1 | inactive | NUP205
1 | 13.8 | inactive | LOC440829
0 | 5.9 | inactive | DIRAS2
1 | 7.7 | inactive | LDHD
0 | 26.7 | inactive | LOC392591
0 | 13.5 | inactive | CENPVL2
0 | 1.1 | inactive | RESP18
1 | 12.8 | inactive | LOC391175
0 | 16.6 | inactive | LOC442439
1 | 7.7 | inactive | ZNF185
0 | -3.8 | inactive | ISL1
-1 | -6.7 | inactive | GPHB5
1 | -1.4 | inactive | TNC
0 | 5.7 | inactive | HTN3
0 | 8.8 | inactive | AOC3
0 | 1.4 | inactive | CTNNBIP1
0 | -3.5 | inactive | GPR160
-1 | -3.8 | inactive | METTL15
0 | -3.6 | inactive | LOC440250
1 | 16.5 | inactive | SEMA3E
0 | 9.2 | inactive | LOC400577
0 | 5.5 | inactive | ELOVL2
0 | 0.3 | inactive | KLHL40

Targets above whose gene name begins with P or p (2):
two-siRNA summed score (-2 to +2) | mean protection from cisplatin (shift in death) (%) | activity call | target
0 | -4.2 | inactive | PARVA
0 | 17.3 | inactive | PTPN1
